Article PMC11506777
Numbering of substitutions follows the chain as printed. These are yes or no findings as the source states them, for the method shown. In cells and extracts the contact can be indirect. Some binding calls cover weakened binding; strength is not graded here. Where a sequence is shown, tags or fusion partners need not be part of it.

Amino acid sequences for entries named in this document (tags omitted). Residues count along the entry.
UniProt P11021, residues 19-654: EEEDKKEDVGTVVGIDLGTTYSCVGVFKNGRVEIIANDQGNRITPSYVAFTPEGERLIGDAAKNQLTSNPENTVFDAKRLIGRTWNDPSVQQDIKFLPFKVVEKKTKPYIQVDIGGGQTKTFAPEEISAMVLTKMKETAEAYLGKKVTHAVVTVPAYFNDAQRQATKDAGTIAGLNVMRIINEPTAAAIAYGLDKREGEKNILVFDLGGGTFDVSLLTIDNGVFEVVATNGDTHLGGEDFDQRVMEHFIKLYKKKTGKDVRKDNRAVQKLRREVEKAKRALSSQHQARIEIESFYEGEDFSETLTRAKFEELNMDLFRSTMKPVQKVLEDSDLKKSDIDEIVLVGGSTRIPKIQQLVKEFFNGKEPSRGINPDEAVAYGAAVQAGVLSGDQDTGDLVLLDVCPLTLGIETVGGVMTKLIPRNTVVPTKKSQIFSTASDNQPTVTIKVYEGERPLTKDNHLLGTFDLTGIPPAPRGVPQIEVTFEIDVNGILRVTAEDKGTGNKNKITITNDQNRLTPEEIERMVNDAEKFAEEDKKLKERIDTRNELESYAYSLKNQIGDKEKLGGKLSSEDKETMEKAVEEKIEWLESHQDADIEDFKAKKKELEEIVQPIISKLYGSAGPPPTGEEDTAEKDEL
UniProt P22607, residues 23-806: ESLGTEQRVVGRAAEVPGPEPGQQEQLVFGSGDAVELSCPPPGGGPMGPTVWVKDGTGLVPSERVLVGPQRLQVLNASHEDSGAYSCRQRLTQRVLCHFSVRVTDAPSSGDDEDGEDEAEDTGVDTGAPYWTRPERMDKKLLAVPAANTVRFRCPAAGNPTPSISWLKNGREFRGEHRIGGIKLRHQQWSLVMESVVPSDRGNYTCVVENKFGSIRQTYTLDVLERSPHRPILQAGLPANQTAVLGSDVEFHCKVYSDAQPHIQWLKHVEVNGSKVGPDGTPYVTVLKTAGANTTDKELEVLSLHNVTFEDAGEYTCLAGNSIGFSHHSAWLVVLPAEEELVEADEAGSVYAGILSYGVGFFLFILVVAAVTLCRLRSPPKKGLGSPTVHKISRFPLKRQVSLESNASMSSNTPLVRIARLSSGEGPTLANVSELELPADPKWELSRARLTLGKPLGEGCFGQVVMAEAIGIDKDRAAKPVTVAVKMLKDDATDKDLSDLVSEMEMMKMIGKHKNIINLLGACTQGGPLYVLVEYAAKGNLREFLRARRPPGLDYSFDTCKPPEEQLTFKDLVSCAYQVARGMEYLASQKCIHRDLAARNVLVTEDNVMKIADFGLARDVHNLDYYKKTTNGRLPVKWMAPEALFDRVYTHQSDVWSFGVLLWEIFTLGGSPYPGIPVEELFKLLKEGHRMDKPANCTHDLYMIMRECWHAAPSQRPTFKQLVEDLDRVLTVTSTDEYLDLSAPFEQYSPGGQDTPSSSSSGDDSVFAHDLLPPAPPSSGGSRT

B1: ERGIC53 (protein, UniProt P49257 31-510)
chain: DGVGGDPAVALPHRRFEYKYSFKGPHLVQSDGTVPFWAHAGNAIPSSDQIRVAPSLKSQRGSVWTKTKAAFENWEVEVTFRVTGRGRIGADGLAIWYAENQGLEGPVFGSADLWNGVGIFFDSFDNDGKKNNPAIVIIGNNGQIHYDHQNDGASQALASCQRDFRNKPYPVRAKITYYQNTLTVMINNGFTPDKNDYEFCAKVENMIIPAQGHFGISAATGGLADDHDVLSFLTFQLTEPGKEPPTPDKEISEKEKEKYQEEFEHFQQELDKKKEEFQKGHPDLQGQPAEEIFESVGDRELRQVFEGQNRIHLEIKQLNRQLDMILDEQRRYVSSLTEEISKRGAGMPGQHGQITQQELDTVVKTQHEILRQVNEMKNSMSETVRLVSGMQHPGSAGGVYETTQHFIDIKEHLHIVKRDIDNLVQRNMPSNEKPKCPELPPFPSCLSTVHFIIFVVVQTVLFIGYIMYRSQQEAAAKKFF

Assays:
[1] = target: T1, Klotho-EGFP WT (mouse Klotho C-terminally tagged with EGFP) (mouse) (UniProt O35082); assay: co-IP; GFP-TRAP agarose immunoprecipitation from CHAPSO lysates (150 mM citrate buffer pH 6.4, 2% CHAPSO; overnight, 4 °C) of HEK293T cells stably expressing Klotho-EGFP variants, Western blot; cells with or without 2.5 nM FGF23 for 5 min
T1 sequence: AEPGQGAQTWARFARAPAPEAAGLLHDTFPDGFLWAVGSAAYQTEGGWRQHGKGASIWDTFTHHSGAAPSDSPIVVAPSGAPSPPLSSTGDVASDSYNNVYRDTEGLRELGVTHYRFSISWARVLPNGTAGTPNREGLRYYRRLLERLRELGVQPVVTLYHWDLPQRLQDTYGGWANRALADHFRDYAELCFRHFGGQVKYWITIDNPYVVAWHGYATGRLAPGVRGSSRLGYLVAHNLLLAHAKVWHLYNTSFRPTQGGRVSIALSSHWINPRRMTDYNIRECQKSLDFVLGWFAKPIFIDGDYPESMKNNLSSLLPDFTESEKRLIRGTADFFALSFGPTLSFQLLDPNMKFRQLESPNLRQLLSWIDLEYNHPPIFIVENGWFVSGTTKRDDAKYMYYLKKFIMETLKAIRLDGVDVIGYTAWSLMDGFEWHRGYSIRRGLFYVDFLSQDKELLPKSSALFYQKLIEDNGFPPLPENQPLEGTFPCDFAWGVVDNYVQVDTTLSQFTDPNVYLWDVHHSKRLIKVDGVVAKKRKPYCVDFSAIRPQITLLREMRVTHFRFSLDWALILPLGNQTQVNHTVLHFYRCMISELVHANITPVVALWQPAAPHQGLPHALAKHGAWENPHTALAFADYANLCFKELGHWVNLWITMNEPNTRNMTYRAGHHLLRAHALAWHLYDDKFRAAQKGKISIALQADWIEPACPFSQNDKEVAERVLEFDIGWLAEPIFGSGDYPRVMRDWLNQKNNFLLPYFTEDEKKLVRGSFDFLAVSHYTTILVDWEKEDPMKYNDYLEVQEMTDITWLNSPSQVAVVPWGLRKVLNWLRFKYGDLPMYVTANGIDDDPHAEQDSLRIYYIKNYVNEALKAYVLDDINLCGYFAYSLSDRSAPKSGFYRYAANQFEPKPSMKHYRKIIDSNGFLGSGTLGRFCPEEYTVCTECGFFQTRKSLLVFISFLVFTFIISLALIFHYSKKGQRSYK

[2] = target: T2, Klotho-EGFP N614Q (mouse) (UniProt O35082); assay: as above
T2 sequence: T1 sequence with N580Q

| binding [1] | binding [2] | Molecule |
| --- | --- | --- |
| binds | binds | HSPA5 (BiP) (from UniProt P11021 19-654) |
| binds | binds | FGFR3 (FGF Receptor 3) (from UniProt P22607 23-806) |
| binds | binds | B1 |
